Test results taken from ChEMBL document CHEMBL1133765, “QSAR model for drug human oral bioavailability” (J Med Chem, 2000).

Columns and labels:
[1] = octanol/water, pH 6.5
[2] = octanol/water
[3] = octanol/water; remark: listed apart in the source
[4] = octanol/water, pH 6.5; remark: listed apart in the source

Row | SMILES | logD [1] | delta logD [2] | delta logD [3] | logD [4]
1 | COC(=O)C1=C(C)NC(C)=C(C(=O)OC)C1c1ccccc1[N+](=O)[O-] [NIFEDIPINE] | 0.42 | 0 | – | –
2 | Nc1nc2ccc(OC(F)(F)F)cc2s1 [RILUZOLE] | – | – | -0.25 | 1.23
